In the supplement of paper PMC12823440, “Inhibitors supercharge kinase turnover through native proteolytic circuits” (Nature, 2025):
Where a name gives a salt, the structure may show the parent alone. The list shows a part of the results. Hit calls seldom repeat between salt and free forms of one compound.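 Kinases were expressed as nanoluciferase fusions in K562 cells and luminescence was read every 4 h between 2 and 18 h as percent of control, DMSO set to 100% and a positive control to 0%. A time point counts as decreased when the signal drops significantly (2 sigma). The hit call is the authors' own, does not follow from the count of time points alone, and its rule is not shown.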

Protein sequences, listed by entry. Tags and fused reporters are not part of them. Lines headed by an entry give the natural chain unless they say otherwise; changes in a name come on top.
UniProt Q15208: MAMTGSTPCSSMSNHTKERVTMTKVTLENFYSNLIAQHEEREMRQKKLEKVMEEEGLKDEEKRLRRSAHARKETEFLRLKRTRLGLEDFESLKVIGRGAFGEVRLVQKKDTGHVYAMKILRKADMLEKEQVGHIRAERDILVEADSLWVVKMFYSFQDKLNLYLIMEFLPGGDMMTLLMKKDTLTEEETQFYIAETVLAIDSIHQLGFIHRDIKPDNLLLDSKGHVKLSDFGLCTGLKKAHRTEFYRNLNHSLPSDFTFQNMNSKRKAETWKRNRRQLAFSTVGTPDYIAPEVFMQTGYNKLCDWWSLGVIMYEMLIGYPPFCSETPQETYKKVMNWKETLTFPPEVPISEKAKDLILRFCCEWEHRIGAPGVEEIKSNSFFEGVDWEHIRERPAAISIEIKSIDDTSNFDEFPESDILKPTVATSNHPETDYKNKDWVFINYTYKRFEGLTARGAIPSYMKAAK

molecular target: STK38 (UniProt Q15208); test: kinase-Nluc reporter destabilization hit call (1 = scored as downregulated) (binary); higher = compound decreases kinase abundance; details: K562; 2-18 h

kinase-Nluc reporter destabilization hit call, inactive:
O=C(O)/C=C(\CCc1ccc(Cl)cc1)c1ccccc1 (10 µM) 0, Cc1cccc(CC(=O)N2CCc3c2ccc(-c2cn(C)c4ncnc(N)c24)c3F)n1 (10 µM) 0, CN(C)CCn1cc2cc(NC(=O)c3cccc(C(F)(F)F)n3)c(C(C)(C)O)cc2n1 (10 µM) 0, Cc1cc(N2CCOCC2)ccc1Nc1nc(NC2CCCCC2)c2[nH]cnc2n1 (10 µM) 0, COc1c(Nc2ncc(Cl)c(N[C@H]3[C@@H](C(N)=O)[C@@H]4C=C[C@H]3C4)n2)ccc2c1CC[C@@H](N1CCOCC1)CC2 (10 µM) 0, COc1cc2ncnc(Nc3cc(Br)c(O)c(Br)c3)c2cc1OC (2.5 µM) 0, Cc1cncc2cccc(S(=O)(=O)N3CCCNC[C@@H]3C)c12 [H-1152 (dihydrochloride)] (10 µM) 0, Nc1ccc(O)c(C(=O)O)c1 [5-Aminosalicylic Acid] (10 µM) 0, CC(C)(C)S(=O)(=O)c1cc2c(Nc3ccc4scnc4c3)ncnc2cc1OCCOP(=O)(O)O (2 µM) 0, CC(C)(CCCCCC(O)CCCCCC(C)(C)C(=O)O)C(=O)O [Bempedoic acid] (10 µM) 0, Cc1n[nH]c2ncc(C(=O)N3CCC[C@H]3c3ccc(Cl)cc3)cc12 (10 µM) 0, CCOC(=O)c1c(Nc2ccccc2Cl)oc(/C=C2\C=Nc3ncccc32)c1O (10 µM) 0, O=C(CCl)c1c[nH]c2ccccc12 (2.5 µM) 0, O=C(Nc1ccc(F)cc1F)C(NC(=S)Nc1cc(C(F)(F)F)cc(C(F)(F)F)c1)c1ccccc1 (racemic) (2.5 µM) 0, COc1cc2nc(NC3CC3)nc(NC3CCN(C(C)C)CC3)c2cc1OC (10 µM) 0, C=CC(=O)Nc1cc(Nc2nccc(-c3cn(C)c4ccccc34)n2)c(OCC(F)(F)F)nc1N(C)CCNC [AST5902  (trimesylate)] (2.5 µM) 0, CN(C)c1cc[n+](Cc2ccc(OCCOc3ccc(C[n+]4ccc(N(C)C)cc4)cc3)cc2)cc1 (10 µM) 0, COc1cc(N2CCC(O)CC2)ccc1Nc1nc(Nc2ccccc2S(=O)(=O)C(C)C)c2[nH]cnc2n1 (10 µM) 0, Cc1cccc(-c2nn3c(c2-c2ccnc4ccc(C(N)=O)cc24)CCC3)n1 [Galunisertib] (10 µM) 0, C[C@@H]1COC(Nc2ccc3ncnc(Nc4ccc(OCc5nccs5)c(Cl)c4)c3c2)=N1 [Varlitinib] (10 µM) 0, CS(=O)(=O)c1ccc([C@@H](CC2CCCC2)C(=O)Nc2nccs2)cc1 (10 µM) 0, S=C(NCc1ccc2c(c1)OCO2)N1CCN(c2ncnc3c2oc2ccccc23)CC1 [Amuvatinib] (2.5 µM) 0, CCC(F)(F)c1cc(N2CCC(S(C)(=O)=O)CC2)nc2sc(C(N)=O)c(N)c12 (10 µM) 0, O=c1cc(N2CCOCC2)oc2c(-c3cccc4c3sc3ccccc34)cccc12 (10 µM) 0, N#Cc1cnc(Nc2cc(NC[C@H]3CNCCO3)c(C(F)(F)F)cn2)cn1 (10 µM) 0, Nc1ccc(C(=O)Nc2cccc(-c3nc(N4CCOCC4)c4oc5ncccc5c4n3)c2)cn1 (10 µM) 0, COc1cc(N2CCC(N3CCN(C)CC3)CC2)ccc1Nc1ncnc(Nc2ccccc2S(=O)(=O)C(C)C)n1 (10 µM) 0, CO[C@@H]1[C@H](N(C)C(=O)c2ccccc2)C[C@H]2O[C@]1(C)n1c3ccccc3c3c4c(c5c6ccccc6n2c5c31)C(=O)NC4 [Midostaurin] (2.5 µM) 0
